Measurements taken from the supplement of paper PMC12067093, “Discovery and optimisation of a covalent ligand for TRIM25 and its application to targeted protein ubiquitination” (Chemical Science, 2025).
Some of the results follow.

The chains behind the UniProt entries cited, without tags or fusion partners. Where a name states a change or a piece, a line headed by the entry shows the natural chain unless it says otherwise.
UniProt Q5TKA1: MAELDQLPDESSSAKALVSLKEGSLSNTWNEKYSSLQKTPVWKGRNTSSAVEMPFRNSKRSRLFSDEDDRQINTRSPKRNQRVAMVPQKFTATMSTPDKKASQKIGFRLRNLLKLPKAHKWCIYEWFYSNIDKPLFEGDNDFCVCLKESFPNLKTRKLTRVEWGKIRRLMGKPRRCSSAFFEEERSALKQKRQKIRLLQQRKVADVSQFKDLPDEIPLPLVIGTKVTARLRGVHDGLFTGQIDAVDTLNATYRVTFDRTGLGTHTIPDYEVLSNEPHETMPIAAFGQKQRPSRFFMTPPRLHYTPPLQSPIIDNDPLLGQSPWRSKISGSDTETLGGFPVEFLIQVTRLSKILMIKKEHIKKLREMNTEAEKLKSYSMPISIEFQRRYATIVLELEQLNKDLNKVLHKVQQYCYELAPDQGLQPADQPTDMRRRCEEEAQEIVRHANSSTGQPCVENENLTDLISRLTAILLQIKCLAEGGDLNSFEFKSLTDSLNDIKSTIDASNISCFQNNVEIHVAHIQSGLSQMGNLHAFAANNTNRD
UniProt P48059, whole entry, looked up: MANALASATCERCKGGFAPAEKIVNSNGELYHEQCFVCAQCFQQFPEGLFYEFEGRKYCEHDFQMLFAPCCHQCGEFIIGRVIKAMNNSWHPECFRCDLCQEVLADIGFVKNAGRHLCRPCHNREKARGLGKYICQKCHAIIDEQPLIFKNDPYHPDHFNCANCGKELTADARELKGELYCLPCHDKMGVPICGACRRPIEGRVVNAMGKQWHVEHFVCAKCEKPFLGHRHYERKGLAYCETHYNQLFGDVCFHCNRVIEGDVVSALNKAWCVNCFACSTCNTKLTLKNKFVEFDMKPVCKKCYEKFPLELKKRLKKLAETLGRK
UniProt P49916: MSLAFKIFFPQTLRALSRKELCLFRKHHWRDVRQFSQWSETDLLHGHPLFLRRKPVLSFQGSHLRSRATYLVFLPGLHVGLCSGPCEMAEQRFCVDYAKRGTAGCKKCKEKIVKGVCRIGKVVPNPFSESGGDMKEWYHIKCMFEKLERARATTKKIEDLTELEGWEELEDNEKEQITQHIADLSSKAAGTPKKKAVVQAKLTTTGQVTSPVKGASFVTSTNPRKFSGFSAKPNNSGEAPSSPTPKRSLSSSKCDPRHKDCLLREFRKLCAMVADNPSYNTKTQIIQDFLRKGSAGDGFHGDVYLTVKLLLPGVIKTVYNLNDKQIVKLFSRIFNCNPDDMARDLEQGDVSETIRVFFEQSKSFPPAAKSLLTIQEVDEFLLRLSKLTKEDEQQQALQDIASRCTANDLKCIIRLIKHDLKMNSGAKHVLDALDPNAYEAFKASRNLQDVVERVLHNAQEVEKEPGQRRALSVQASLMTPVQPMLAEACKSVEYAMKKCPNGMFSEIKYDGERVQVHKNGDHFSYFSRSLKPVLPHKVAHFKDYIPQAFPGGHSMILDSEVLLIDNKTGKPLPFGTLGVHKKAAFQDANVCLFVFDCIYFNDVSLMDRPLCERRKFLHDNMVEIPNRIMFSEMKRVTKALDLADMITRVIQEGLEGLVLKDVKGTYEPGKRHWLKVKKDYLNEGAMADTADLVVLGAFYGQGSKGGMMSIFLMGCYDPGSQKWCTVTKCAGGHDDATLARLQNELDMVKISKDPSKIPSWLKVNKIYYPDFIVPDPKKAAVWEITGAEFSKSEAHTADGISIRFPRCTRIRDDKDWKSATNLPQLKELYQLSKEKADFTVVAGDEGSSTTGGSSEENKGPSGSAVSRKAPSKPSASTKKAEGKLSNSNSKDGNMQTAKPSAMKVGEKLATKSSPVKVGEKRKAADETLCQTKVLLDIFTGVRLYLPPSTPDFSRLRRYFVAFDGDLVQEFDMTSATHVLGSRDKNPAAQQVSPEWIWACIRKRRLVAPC
UniProt O60711: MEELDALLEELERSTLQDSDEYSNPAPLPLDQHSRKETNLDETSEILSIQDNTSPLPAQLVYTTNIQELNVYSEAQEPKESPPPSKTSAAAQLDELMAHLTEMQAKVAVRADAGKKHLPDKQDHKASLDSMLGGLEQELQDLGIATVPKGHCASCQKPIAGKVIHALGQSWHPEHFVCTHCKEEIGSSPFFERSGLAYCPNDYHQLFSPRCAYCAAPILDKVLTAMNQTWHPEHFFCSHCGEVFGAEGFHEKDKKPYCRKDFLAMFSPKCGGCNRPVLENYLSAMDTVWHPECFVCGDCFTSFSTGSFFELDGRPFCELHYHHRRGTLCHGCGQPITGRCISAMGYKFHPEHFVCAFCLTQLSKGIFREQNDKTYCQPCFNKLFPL
UniProt Q96II8: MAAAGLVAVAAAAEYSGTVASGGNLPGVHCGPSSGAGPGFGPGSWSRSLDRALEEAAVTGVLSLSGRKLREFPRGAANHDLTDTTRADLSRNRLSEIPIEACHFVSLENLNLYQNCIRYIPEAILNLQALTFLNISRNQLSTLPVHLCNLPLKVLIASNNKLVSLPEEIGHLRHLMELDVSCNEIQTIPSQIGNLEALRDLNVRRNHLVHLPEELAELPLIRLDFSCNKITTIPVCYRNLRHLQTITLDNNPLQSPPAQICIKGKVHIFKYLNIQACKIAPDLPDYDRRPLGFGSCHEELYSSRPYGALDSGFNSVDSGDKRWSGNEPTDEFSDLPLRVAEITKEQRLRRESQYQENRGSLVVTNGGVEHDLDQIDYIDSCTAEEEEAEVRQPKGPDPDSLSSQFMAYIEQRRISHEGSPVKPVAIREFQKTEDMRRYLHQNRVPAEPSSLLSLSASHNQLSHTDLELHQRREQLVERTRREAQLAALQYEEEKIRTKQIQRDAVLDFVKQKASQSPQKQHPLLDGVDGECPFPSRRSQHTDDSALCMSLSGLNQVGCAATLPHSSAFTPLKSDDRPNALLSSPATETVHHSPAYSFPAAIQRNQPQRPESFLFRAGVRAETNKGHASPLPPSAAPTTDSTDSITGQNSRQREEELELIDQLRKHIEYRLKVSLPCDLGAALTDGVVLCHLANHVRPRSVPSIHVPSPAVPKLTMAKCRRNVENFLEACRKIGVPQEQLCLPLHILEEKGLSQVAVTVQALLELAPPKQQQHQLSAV
UniProt Q96PV6, whole entry, looked up: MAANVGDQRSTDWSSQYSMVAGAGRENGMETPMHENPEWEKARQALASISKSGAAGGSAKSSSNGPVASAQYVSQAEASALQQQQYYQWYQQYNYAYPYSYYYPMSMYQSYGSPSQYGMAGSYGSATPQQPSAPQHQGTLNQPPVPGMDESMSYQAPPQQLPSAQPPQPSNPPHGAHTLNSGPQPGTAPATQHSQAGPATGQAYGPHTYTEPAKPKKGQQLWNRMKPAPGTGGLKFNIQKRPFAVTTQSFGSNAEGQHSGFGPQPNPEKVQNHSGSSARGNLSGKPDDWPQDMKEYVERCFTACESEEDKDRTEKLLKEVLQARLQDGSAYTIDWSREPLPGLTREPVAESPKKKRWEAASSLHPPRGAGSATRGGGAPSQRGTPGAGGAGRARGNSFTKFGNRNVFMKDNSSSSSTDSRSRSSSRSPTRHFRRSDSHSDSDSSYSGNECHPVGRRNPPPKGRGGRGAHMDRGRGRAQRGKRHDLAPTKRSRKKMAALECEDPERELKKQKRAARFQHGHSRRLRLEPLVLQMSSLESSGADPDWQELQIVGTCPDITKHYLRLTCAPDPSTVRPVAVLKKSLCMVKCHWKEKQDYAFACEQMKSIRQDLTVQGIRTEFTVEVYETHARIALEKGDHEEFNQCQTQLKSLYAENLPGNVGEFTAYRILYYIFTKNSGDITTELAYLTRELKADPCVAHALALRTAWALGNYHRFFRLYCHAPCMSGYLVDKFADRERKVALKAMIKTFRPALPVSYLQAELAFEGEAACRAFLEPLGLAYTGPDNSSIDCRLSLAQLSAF
UniProt P18858, whole entry, looked up: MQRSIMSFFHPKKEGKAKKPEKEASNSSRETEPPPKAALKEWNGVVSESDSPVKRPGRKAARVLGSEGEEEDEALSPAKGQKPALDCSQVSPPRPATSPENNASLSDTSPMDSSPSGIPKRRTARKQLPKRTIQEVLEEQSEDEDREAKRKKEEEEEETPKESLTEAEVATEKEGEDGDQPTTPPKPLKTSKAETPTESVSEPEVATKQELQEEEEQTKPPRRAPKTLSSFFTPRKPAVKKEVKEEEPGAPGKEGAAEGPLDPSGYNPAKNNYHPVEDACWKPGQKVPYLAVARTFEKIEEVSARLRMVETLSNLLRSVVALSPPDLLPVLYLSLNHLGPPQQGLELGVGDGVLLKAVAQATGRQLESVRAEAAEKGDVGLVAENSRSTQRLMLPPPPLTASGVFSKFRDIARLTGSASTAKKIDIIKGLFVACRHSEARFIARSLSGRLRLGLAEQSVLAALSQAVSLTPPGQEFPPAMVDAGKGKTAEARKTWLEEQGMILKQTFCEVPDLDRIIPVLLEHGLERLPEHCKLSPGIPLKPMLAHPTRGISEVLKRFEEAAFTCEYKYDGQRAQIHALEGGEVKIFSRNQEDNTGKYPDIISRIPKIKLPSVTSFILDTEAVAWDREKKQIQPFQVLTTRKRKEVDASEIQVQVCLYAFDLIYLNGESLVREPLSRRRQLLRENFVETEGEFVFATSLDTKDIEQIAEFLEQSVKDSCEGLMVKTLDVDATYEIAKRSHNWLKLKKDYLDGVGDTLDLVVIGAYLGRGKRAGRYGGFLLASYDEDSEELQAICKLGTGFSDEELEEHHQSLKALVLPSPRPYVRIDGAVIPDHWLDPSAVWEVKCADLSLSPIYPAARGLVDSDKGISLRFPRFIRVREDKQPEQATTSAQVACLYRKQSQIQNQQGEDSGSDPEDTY
UniProt O75427: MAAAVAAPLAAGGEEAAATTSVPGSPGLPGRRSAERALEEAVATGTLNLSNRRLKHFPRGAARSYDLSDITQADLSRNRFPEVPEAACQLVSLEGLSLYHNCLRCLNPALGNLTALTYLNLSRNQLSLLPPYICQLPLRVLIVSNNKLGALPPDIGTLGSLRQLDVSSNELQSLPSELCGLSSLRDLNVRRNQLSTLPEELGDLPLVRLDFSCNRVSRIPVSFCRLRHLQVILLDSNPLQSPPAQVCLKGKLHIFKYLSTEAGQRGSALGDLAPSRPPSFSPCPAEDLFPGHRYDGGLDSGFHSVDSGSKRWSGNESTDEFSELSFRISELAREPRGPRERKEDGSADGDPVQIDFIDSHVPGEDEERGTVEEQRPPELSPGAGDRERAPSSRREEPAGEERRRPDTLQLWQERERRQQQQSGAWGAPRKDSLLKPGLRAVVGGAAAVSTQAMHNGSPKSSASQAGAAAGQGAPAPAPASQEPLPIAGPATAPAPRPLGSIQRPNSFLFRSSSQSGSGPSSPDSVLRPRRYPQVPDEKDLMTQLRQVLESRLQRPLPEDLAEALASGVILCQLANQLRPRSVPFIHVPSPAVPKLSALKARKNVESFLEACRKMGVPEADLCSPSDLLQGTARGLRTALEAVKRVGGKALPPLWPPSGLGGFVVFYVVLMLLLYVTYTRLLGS
UniProt P36776: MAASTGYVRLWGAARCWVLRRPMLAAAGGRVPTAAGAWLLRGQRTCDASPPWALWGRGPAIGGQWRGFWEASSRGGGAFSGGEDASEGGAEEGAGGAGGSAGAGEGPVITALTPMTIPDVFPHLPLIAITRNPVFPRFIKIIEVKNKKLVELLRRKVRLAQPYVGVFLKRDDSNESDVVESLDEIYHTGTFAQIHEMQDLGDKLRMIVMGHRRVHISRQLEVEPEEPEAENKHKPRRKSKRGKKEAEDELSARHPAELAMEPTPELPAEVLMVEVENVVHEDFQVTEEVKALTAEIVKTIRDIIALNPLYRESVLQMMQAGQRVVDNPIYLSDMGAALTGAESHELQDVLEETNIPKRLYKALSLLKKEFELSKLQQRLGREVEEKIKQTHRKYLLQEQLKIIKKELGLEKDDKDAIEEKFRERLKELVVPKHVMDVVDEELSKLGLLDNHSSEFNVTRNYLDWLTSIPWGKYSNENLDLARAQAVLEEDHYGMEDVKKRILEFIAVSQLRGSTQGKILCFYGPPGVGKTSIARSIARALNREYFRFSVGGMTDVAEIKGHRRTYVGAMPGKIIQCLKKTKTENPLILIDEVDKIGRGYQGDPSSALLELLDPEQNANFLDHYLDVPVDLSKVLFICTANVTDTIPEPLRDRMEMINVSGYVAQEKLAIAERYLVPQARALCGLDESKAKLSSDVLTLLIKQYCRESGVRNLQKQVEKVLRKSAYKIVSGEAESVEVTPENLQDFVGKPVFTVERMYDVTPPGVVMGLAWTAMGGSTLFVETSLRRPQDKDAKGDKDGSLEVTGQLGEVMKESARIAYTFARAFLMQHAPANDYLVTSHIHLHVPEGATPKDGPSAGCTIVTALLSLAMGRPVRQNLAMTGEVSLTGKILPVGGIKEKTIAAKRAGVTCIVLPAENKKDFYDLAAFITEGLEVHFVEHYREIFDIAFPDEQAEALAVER
UniProt P09382, whole entry, looked up: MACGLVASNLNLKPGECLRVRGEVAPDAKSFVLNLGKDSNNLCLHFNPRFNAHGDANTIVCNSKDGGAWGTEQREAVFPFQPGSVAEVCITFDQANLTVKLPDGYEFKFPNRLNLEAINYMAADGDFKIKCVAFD

Compound: Cc1cc(ccc1-c1ccccc1)C(=O)N1CCCN(CC1)C(=O)CCl [compound 10]
Test: probe-labelled cysteine peptide fold change vs DMSO (competition) (log2 fold change); higher = less target engagement (more negative = stronger competition)
Settings: THP-1, incubation time: 4 h
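Also: competitive profiling in live THP-1 cells: cysteine peptides tagged with an iodoacetamide desthiobiotin (IA-DTB) probe, intensity after compound treatment relative to DMSO-treated cells.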

Row | Target | probe-labelled cysteine peptide fold change (10 µM) | probe-labelled cysteine peptide fold change (50 µM)
1 | LMNA_P02545_570_SVTVVEDDEDEDGDDLLHHHHGSHCSSSGDPAEYNLR (UniProt P02545) | 0.282 | 0.336
2 | LIN9_Q5TKA1_435_RCEEEAQEIVR (UniProt Q5TKA1) | -0.273 | -0.168
3 | LIMS1_P48059_278+281_AWCVNCFACSTCNTK (UniProt P48059) | -0.00565 | -0.467
4 | LIG3_P49916_929_AADETLCQTK (UniProt P49916) | -0.0862 | -0.203
5 | LPXN_O60711_155_GHCASCQK (UniProt O60711) | 0.146 | 0.237
6 | LRR1_Q96L50_91_LKEPPVDICLSK (UniProt Q96L50) | -0.0559 | -0.245
7 | LRCH3_Q96II8_531_QHPLLDGVDGECPFPSR (UniProt Q96II8) | -0.153 | -0.329
8 | LENG8_Q96PV6_695_ADPCVAHALALR (UniProt Q96PV6) | -0.0426 | 0.134
9 | LIG1_P18858_719_DSCEGLMVK (UniProt P18858) | -0.135 | -0.04
10 | LRCH4_O75427_134_NQLSLLPPYICQLPLR (UniProt O75427) | 0.247 | 0.132
11 | LPXN_O60711_358_FHPEHFVCAFCLTQLSK (UniProt O60711) | -0.06 | -0.732
12 | LIG4_P49917_747_FMIHMCPSTK (UniProt P49917) | 0.0104 | -0.0986
13 | LONP1_P36776_909_AGVTCIVLPAENK (UniProt P36776) | 0.0996 | 0.333
14 | LGALS1_P09382_61_FNAHGDANTIVCNSKDGGAWGTEQR (UniProt P09382) | -0.0368 | -0.451

2 entries picked at random from those above, as already listed:
Row | Target | probe-labelled cysteine peptide fold change (10 µM) | probe-labelled cysteine peptide fold change (50 µM)
8 | LENG8_Q96PV6_695_ADPCVAHALALR (UniProt Q96PV6) | -0.0426 | 0.134
2 | LIN9_Q5TKA1_435_RCEEEAQEIVR (UniProt Q5TKA1) | -0.273 | -0.168
